Experimental data: PubChem BioAssay AID493014 (National Center for Advancing Translational Sciences (NCATS), 2011)
The other results are listed elsewhere or left out. These are further read-outs of the screen, such as a control signal, another cell line or another target. No call is given for them. Compounds called inactive in the main read-out are mostly missing here. The note in brackets gives the kind of curve behind each potency; many fits are weak.

Test: qHTS Assay to Find Inhibitors of Chronic Active B-Cell Receptor Signaling
Details: ABC-DLBCL IkBa-CBG/CBR reporter, luminescence ratio (green luciferase fused to IkBa over red control in TMD8 lymphoma cells), 4 h
Summary of the method: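 Concentration-response series (up to 46 uM) were applied to TMD8 dual-reporter cells for 4 h at 37C with doxycycline. Green/red ratio, after filter-overlap correction, defined %Activity; red signal alone was normalised to basal cells and zero luminescence.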

[1] = measured here: CBR red luminescence, cell number

Question: For `COC(=O)C1(C)Cc2cc(OC(C)=O)c(OC(C)=O)cc2N1` (centres undefined), which AC50 [1] is on record?
Answer: 11.2 µM [falling, partial curve, poor fit]

Question: Which AC50 [1] does the source give for `CC(OC(=O)c1cccc(-n2cnnn2)c1)C(=O)N(C)c1ccccc1` (centres undefined) here?
Answer: 3.98 µM [rising, single point]

Question: For `CCN(CC(=O)N(CC(C)C)c1c(N)n(CC(C)C)c(=O)[nH]c1=O)Cc1nc2ccccc2c(=O)[nH]1`, which AC50 [1] is on record?
Answer: 35.5 µM [rising, single point]

Question: For `O=C(Nc1cccc(NC(=O)c2ccccc2Cl)c1)c1ccc([N+](=O)[O-])o1`, which AC50 [1] is on record?
Answer: 22.4 µM [falling, single point]

Question: For `O=C1NCCCC2c3cc(O)c4ccccc4c3OC12N1CCCCC1` (centres undefined), which AC50 [1] is on record?
Answer: 35.5 µM [falling, single point]

Question: For `CCOC(=O)c1c(C)oc2cc(Cl)c(O)c(CN(C)C)c12`, which AC50 [1] is on record?
Answer: 12.6 µM [rising, partial curve]

Question: With `Cc1cc(NC(=O)NC(=O)c2ccccc2F)no1` as the compound, how does the AC50 [1] read?
Answer: 15.8 µM [falling, partial curve, poor fit]

Question: With `CN(CC(=O)Nc1ccc(Cl)c(C(F)(F)F)c1)C(=O)/C=C/c1cccs1` as the compound, how does the AC50 [1] read?
Answer: 20.6 µM [rising, single point]

Question: Which AC50 [1] does the source give for `CC1(C)Cc2ccccc2C(C(Cc2ccccc2)C(N)=O)=N1` (centres undefined) here?
Answer: 0.631 µM [rising, partial curve, poor fit]

Question: Which AC50 [1] does the source give for `CCS(=O)(=O)c1ccc(-c2cccc(NC(=O)c3ccco3)c2)nn1` here?
Answer: 6.51 µM [falling, single point]

Question: Which AC50 [1] does the source give for `CC1(C)Cc2c(sc3nc(-c4ccccc4)oc(=O)c23)CO1` here?
Answer: 0.291 µM [falling, full curve]

Question: With `COc1ccc(NC(=O)C/C(C)=N/NC(=O)c2ccco2)c([N+](=O)[O-])c1` as the compound, how does the AC50 [1] read?
Answer: 35.5 µM [falling, partial curve, poor fit]

Question: For `O=C(Nc1ccccc1)C1=C[C@H](c2ccc3c(c2)OCO3)C[C@H](OCc2ccc(CO)cc2)O1`, which AC50 [1] is on record?
Answer: 25.1 µM [falling, single point]

Question: With `NC(=O)c1ccccc1NC(=O)CCc1ccccc1` as the compound, how does the AC50 [1] read?
Answer: 4.47 µM [falling, partial curve]

Question: With `CCN(CC(=O)Nc1ccc(OC)cc1)C(=O)c1cc([N+](=O)[O-])ccc1N1CCOCC1` as the compound, how does the AC50 [1] read?
Answer: 6.51 µM [rising, partial curve, poor fit]

Question: With `N#Cc1cccnc1N1CCN(C(=O)c2cccc3c2C(=O)c2ccc(Cl)cc2S3(=O)=O)CC1` as the compound, how does the AC50 [1] read?
Answer: 6.51 µM [rising, single point]

Question: With `O=C(Nc1nccs1)C1CCN(S(=O)(=O)c2ccc3c(c2)OCCCO3)CC1` as the compound, how does the AC50 [1] read?
Answer: 3.55 µM [falling, partial curve, poor fit]

Question: With `CN1CCN(CC(=O)N2CCn3c4c(c5cc(C6CCCCC6)ccc53)CCCC42)CC1` (centres undefined) as the compound, how does the AC50 [1] read?
Answer: 6.51 µM [rising, partial curve, poor fit]

Question: For `N#C/C(=C\c1cccnc1)c1ccc(Br)cc1`, which AC50 [1] is on record?
Answer: 0.501 µM [rising, full curve, poor fit]

Question: Which AC50 [1] does the source give for `COc1cccc(OC)c1C(=O)Nc1c(C(=O)N2CCN(c3ccccn3)CC2)oc2ccccc12` here?
Answer: 3.55 µM [rising, single point]

Question: For `CC(C)C(=O)N/N=C/c1ccc(OCc2ccccc2)cc1`, which AC50 [1] is on record?
Answer: 2.82 µM [rising, full curve, poor fit]

Question: With `O=C(NCc1cccs1)C1CC(c2ccccc2O)=NO1` (centres undefined) as the compound, how does the AC50 [1] read?
Answer: 14.6 µM [falling, partial curve]

Question: For `C=CCOc1ccc(/C=C2\SC(=S)N(CCC(=O)O)C2=O)cc1`, which AC50 [1] is on record?
Answer: 0.447 µM [falling, full curve, poor fit]

Question: Which AC50 [1] does the source give for `CCOc1ccccc1NC(=O)/C(C#N)=C/c1cccnc1` here?
Answer: 20 µM [falling, partial curve, poor fit]

Question: Which AC50 [1] does the source give for `O=C(CNC(=O)Cn1ccc2ccccc2c1=O)NCCCN1CCCCCC1` here?
Answer: 18.4 µM [rising, partial curve]

Question: Which AC50 [1] does the source give for `Cc1ccc(NC(=O)CSc2nnc(CCC(=O)O)c(=O)[nH]2)cc1` here?
Answer: 6.31 µM [falling, partial curve]

Question: Which AC50 (measured here: IkBa-CBG green luminescence) does the source give for `COc1ccc2nc(C(F)(F)Cl)c(C#N)c(N)c2c1` here?
Answer: 1.26 µM [rising, full curve, poor fit]

Question: For `CC(=O)C1=NN(c2ccc(Cl)cc2)C(c2ccc3c(c2)OCO3)N(C(C)=O)N1C` (centres undefined), which AC50 [1] is on record?
Answer: 35.5 µM [falling, single point]

Question: With `CC1=NN(C(=O)c2ccccc2Cl)C(O)(c2cccnc2)C1` (centres undefined) as the compound, how does the AC50 [1] read?
Answer: 3.55 µM [falling, partial curve]

Question: Which AC50 [1] does the source give for `NNCCc1ccccc1` here?
Answer: 0.82 µM [rising, full curve, poor fit]

Question: For `Cn1c(=O)c2c(nc(SCC(=O)N3CCCCCC3)n2C)n(C)c1=O`, which AC50 [1] is on record?
Answer: 2.91 µM [falling, full curve]

Question: With `C/C(=N\OCc1nc2ccccc2c(=O)n1/N=C/c1cc(C)cc([N+](=O)[O-])c1O)c1ccccc1` as the compound, how does the AC50 [1] read?
Answer: 17.8 µM [falling, single point]

Question: For `O=C(NC1CCCC1)c1cccc(Oc2ccccc2)c1`, which AC50 [1] is on record?
Answer: 35.5 µM [rising, single point]

Question: With `CC1(C)OC(c2ccccc2)=C/C(=C/C=Nc2ccccc2)O1` as the compound, how does the AC50 [1] read?
Answer: 4.61 µM [falling, partial curve, poor fit]

Question: With `COc1ccc(OCc2n[nH]c(=S)n2-c2ccc(C)cc2)cc1` as the compound, how does the AC50 [1] read?
Answer: 35.5 µM [rising, single point]

Question: Which AC50 [1] does the source give for `CC1=NN(c2ccccc2)C(=O)C1N=Nc1ccc(N)cc1` (centres undefined) here?
Answer: 25.9 µM [rising, single point]

Question: Which AC50 [1] does the source give for `O=C(CSc1ccc2nnc(-c3ccncc3)n2n1)NCC1CCCO1` (centres undefined) here?
Answer: 35.5 µM [rising, single point]

Question: Which AC50 [1] does the source give for `COc1ccc(-c2csc(=NCCO)n2-c2ccccc2)cc1` here?
Answer: 0.1 µM [rising, full curve, poor fit]

Question: For `O=C(N/N=C/c1ccccc1F)c1ccc(COc2ccccc2Cl)o1`, which AC50 [1] is on record?
Answer: 10.3 µM [falling, partial curve, poor fit]

Question: Which AC50 [1] does the source give for `CC1(C)NC(=O)N(CC(=O)N2CCN(S(=O)(=O)c3ccccc3C(F)(F)F)CC2)C1=O` here?
Answer: 16.4 µM [rising, partial curve, poor fit]

Question: For `CC(C)c1ccc(-c2nc(N3CCCC3)nc3n[nH]c(N)c23)cc1`, which AC50 [1] is on record?
Answer: 3.26 µM [rising, single point]

Question: With `C[C@H](CO)N1C[C@H](C)[C@@H](CN(C)C(=O)Nc2ccc3c(c2)OCO3)Oc2ccc(NS(=O)(=O)c3ccc(F)cc3)cc2C1=O` as the compound, how does the AC50 [1] read?
Answer: 2.59 µM [rising, full curve, poor fit]

Question: Which AC50 [1] does the source give for `CN(Cc1cccs1)c1ncnc2sccc12` here?
Answer: 6.51 µM [falling, single point]

Question: Which AC50 [1] does the source give for `CCOc1ccccc1C(=O)Nc1cccc(-c2nnc(-c3ccccc3)o2)c1` here?
Answer: 0.398 µM [rising, full curve, poor fit]

Question: Which AC50 [1] does the source give for `CC(C)c1ccc(O)c(NC(=S)NC(=O)c2ccc3c(c2)OCO3)c1` here?
Answer: 12.6 µM [falling, partial curve, poor fit]

Question: Which AC50 [1] does the source give for `O=C(NCCc1c[nH]c2ccccc12)c1cccc(Br)c1` here?
Answer: 12.6 µM [falling, single point]

Question: With `CN(C)N1C(N)=C(C#N)C(c2cccc3ccccc23)C2=C1CC(c1ccccc1)CC2=O` (centres undefined) as the compound, how does the AC50 [1] read?
Answer: 4.11 µM [falling, partial curve, poor fit]

Question: For `CCCCN(C(=O)Nc1ccc(OCC)cc1)C1CCN(C(C)=O)CC1`, which AC50 [1] is on record?
Answer: 0.562 µM [rising, full curve, poor fit]

Question: Which AC50 [1] does the source give for `O=C(NNC(=S)NC(=O)c1ccco1)c1ccc(F)cc1` here?
Answer: 3.55 µM [falling, partial curve, poor fit]

Question: With `CCOC(CCNC(=O)CCC(=O)Nc1ccc2nc(N3CCN(C)CC3)cc(C)c2c1)OCC` as the compound, how does the AC50 [1] read?
Answer: 35.5 µM [falling, single point]

Question: With `O=C(NNC(=S)Nc1ccc(F)cc1)c1cccc([N+](=O)[O-])c1` as the compound, how does the AC50 [1] read?
Answer: 1.26 µM [rising, partial curve, poor fit]

Question: For `Cc1ccc(S(=O)(=O)CCC(=O)OCC(=O)Nc2ccc(N3CCOCC3)cc2)cc1`, which AC50 [1] is on record?
Answer: 8.2 µM [falling, partial curve, poor fit]

Question: Which AC50 [1] does the source give for `c1ccc(-c2nnc(SCc3cn4ccsc4n3)o2)cc1` here?
Answer: 35.5 µM [falling, single point]

Question: Which AC50 [1] does the source give for `COCCCNCCOCCOc1ccc(C)cc1[N+](=O)[O-]` here?
Answer: 22.4 µM [falling, single point]

Question: Which AC50 [1] does the source give for `COc1cccc(NC(=O)C(NCC(C)(C)CN(C)C)c2ccccc2)c1` (centres undefined) here?
Answer: 0.0231 µM [rising, full curve, poor fit]

Question: Which AC50 [1] does the source give for `CCOC(=O)c1cc2cc(CC(=O)c3ccc(OCC)cc3O)ccc2o1` here?
Answer: 2.31 µM [falling, full curve]

Question: For `O=C(NCCC1=CCCCC1)c1ccc([N+](=O)[O-])cc1`, which AC50 [1] is on record?
Answer: 2.59 µM [rising, partial curve]

Question: Which AC50 [1] does the source give for `CS(=O)(=O)Oc1ccc2c(c1)O/C(=C\c1cccnc1)C2=O` here?
Answer: 2.51 µM [rising, partial curve]

Question: With `O=c1oc2ccccc2c(O)c1Cc1cc(Cl)c2cccnc2c1O` as the compound, how does the AC50 [1] read?
Answer: 0.562 µM [falling, full curve, poor fit]

Question: Which AC50 [1] does the source give for `O=C(OCCCc1cc2ccccc2c(=O)o1)c1ccc2c(c1)OCO2` here?
Answer: 25.9 µM [rising, single point]

Question: Which AC50 [1] does the source give for `O=C1c2ccccc2C(Nc2ccc(S(=O)(=O)N3CCOCC3)cc2)N1Cc1ccco1` (centres undefined) here?
Answer: 6.51 µM [rising, single point]

Question: With `OCCCCNCc1ccc(OCc2ccc(Cl)cc2Cl)cc1` as the compound, how does the AC50 [1] read?
Answer: 35.5 µM [falling, single point]

Question: Which AC50 [1] does the source give for `Cc1ccc(SCCNC(=O)CN2C(=O)c3ccccc3S2(=O)=O)cc1` here?
Answer: 25.1 µM [rising, partial curve, poor fit]

Question: Which AC50 [1] does the source give for `O=[N+]([O-])c1ccc(N2CCSCC2)cc1` here?
Answer: 11.2 µM [rising, partial curve, poor fit]
